According to PubChem BioAssay (NCATS):
Inconclusive means that the source gave no clear call. Such entries were picked first, then a sample of the others. For some of these results: A potency beside an inconclusive call is a rough fit, not a confirmed value. Activity calls are given as the source filed them. Unless noted, calls come from the whole dose curve.

Amino acid sequences for entries named in this document (tags omitted). A change or cut given only in a name is not applied to a line headed by its entry.
UniProt P11473: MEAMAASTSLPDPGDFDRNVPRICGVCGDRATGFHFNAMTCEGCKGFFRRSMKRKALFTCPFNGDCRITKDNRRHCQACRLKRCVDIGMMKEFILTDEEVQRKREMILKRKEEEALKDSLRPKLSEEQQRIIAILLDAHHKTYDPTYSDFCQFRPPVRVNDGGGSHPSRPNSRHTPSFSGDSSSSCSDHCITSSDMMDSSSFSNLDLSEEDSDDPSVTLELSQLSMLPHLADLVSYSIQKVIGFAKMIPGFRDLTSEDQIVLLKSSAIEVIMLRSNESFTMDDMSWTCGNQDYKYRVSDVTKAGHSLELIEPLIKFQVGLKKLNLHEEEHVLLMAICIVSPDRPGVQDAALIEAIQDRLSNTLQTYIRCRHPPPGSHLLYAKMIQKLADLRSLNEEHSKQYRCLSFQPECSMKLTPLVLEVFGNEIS
UniProt O95398: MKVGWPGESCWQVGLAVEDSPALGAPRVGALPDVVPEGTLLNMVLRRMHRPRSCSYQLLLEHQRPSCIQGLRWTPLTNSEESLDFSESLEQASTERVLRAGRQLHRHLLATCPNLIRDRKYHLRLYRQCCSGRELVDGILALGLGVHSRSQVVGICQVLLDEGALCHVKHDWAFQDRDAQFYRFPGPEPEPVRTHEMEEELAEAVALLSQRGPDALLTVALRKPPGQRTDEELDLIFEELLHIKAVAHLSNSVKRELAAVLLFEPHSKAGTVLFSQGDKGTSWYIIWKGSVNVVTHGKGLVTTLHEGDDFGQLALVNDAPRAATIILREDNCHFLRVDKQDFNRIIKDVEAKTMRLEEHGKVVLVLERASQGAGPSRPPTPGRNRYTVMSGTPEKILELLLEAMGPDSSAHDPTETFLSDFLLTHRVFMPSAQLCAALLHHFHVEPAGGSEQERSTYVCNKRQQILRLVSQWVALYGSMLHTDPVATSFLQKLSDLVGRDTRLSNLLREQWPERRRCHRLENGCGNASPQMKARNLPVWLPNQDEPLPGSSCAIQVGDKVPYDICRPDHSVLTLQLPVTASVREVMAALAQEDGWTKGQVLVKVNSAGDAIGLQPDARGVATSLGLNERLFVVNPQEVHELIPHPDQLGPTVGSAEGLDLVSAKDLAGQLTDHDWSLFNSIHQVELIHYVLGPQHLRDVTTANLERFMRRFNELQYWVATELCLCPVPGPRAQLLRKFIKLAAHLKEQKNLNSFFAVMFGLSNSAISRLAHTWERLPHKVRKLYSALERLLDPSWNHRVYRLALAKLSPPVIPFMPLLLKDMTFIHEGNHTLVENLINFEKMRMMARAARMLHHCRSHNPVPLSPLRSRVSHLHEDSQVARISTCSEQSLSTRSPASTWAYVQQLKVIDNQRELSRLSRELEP
UniProt Q8WZA2: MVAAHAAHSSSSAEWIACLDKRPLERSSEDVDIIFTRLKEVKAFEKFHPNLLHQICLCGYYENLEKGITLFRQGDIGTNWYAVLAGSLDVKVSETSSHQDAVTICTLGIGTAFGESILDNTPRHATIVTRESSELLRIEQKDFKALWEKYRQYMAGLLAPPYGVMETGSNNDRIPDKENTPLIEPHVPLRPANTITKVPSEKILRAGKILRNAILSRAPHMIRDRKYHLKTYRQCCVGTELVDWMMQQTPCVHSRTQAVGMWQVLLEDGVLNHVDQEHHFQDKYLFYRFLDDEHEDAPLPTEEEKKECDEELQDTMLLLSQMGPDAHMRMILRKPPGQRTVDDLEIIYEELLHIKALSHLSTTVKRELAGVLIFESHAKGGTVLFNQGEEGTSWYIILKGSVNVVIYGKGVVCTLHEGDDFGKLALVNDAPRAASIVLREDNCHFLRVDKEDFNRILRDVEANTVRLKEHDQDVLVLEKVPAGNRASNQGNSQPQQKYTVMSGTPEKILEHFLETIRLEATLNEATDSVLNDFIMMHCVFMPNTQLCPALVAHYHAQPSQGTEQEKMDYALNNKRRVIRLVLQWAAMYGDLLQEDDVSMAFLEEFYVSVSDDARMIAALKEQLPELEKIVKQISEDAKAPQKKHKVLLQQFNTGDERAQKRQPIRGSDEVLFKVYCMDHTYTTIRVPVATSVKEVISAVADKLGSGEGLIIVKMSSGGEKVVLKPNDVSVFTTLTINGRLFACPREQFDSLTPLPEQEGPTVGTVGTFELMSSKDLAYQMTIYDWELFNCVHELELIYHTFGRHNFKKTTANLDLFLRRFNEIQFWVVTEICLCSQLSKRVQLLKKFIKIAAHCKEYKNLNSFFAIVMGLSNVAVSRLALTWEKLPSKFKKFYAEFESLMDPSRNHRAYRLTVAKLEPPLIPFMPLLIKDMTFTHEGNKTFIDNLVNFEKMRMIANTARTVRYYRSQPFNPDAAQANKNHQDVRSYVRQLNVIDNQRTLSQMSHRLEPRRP
UniProt Q9Y253: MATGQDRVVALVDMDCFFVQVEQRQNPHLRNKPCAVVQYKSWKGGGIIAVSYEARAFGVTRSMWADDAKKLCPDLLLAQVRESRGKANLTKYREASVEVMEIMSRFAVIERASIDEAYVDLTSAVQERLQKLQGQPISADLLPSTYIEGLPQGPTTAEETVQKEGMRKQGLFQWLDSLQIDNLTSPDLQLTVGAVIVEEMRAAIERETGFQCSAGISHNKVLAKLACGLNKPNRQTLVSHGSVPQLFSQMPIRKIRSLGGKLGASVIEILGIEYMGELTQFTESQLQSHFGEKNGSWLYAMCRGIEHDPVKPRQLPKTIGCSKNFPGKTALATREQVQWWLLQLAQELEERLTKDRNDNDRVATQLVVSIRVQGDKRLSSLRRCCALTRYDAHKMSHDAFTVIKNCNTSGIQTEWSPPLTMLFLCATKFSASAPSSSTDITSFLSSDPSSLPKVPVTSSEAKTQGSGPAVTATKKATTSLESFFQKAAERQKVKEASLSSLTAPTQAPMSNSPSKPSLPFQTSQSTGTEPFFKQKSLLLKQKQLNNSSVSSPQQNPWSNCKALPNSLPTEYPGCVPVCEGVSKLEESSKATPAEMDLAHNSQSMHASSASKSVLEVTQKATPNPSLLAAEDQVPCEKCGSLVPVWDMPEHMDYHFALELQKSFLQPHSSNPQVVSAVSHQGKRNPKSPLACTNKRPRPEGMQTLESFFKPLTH
UniProt P10635, whole entry, looked up: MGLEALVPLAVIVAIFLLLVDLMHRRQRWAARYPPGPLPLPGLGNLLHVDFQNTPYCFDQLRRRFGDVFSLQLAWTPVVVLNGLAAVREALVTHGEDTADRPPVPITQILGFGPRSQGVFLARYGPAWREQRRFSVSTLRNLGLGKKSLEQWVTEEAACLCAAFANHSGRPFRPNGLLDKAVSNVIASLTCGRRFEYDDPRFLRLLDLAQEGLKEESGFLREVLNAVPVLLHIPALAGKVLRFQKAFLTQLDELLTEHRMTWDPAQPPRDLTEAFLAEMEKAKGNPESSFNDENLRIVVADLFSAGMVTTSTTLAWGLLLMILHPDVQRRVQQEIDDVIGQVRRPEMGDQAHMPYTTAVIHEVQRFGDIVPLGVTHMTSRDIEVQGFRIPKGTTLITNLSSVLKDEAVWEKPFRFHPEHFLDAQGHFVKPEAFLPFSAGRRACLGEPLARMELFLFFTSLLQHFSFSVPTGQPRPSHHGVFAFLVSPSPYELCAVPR
UniProt P11712, whole entry, looked up: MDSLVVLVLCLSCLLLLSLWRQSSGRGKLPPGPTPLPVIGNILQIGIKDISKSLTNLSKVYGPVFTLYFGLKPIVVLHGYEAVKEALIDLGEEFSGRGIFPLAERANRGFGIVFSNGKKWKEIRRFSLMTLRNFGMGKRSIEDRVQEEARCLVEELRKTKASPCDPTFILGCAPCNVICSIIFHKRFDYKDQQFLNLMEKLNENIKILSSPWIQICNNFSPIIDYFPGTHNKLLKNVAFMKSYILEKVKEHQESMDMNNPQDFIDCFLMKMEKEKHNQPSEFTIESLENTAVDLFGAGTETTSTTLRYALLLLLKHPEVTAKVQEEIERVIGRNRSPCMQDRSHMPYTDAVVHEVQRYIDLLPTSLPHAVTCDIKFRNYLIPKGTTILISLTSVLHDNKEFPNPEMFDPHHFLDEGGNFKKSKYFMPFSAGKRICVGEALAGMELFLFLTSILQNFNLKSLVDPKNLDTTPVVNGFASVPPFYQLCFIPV

Key:
[1] = biological target: Vitamin D3 receptor (Homo sapiens) (UniProt P11473); test: qHTS for Inhibitors of the vitamin D receptor (VDR): Hit Validation in Primary Screen (AID 602199; active = well fitted curve in the direction sought with a large enough effect; inconclusive = small, poorly fitted or top-dose-only effect, or another doubt; inactive = no such curve, though single readings can be large; an effect the other way counts as inactive or inconclusive; note: potency is the fitted concentration of half-maximal effect); conditions: VDR-coactivator inhibition assay, qHTS confirmation
Method in brief: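 Fluorescence polarization (Ex 620/Em 688 nm) of Alexa 647-SRC2-3 peptide with 800 nM VDR and 5 uM LG19078. Compounds at several concentrations, 2 h at room temperature.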

[2] = qHTS for Inhibitors of the vitamin D receptor (VDR): Hit Validation using a Cytotoxicity Assay (AID 602204; active = well fitted curve in the direction sought with a large enough effect; inconclusive = small, poorly fitted or top-dose-only effect, or another doubt; inactive = no such curve, though single readings can be large; an effect the other way counts as inactive or inconclusive;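 note: cells co-treated with VDR agonist LG190178 at 300 nM; potency is the fitted concentration of half-maximal effect; nearly all actives have a fitted effect of over 75% in size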); conditions: cytotoxicity counter-screen, cell viability; series mostly up to 48.3 µM
Method in brief: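 Viability read-out: luminescent ATP quantification after 18 h compound exposure. Plated cells (20,000/well) had 4 h before dosing; reagent incubation 30 min. High-concentration cycloheximide marks full kill, DMSO no effect.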

[3] = biological target: Rap guanine nucleotide exchange factor 3 (Homo sapiens) (UniProt O95398); test: Confirmatory qHTS for antagonist of cAMP-regulated guanine nucleotide exchange factor 3 (EPAC1) (AID 1645880; active = well fitted curve in the direction sought with a large enough effect; inconclusive = small, poorly fitted or top-dose-only effect, or another doubt; inactive = no such curve, though single readings can be large; an effect the other way counts as inactive or inconclusive; note: nearly all actives have a fitted effect of over 55% in size; note: potency is the fitted concentration of half-maximal effect;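 for activity, negative = inhibition: plate controls were DMSO only for no effect and full effect of the ATA control for full effect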); conditions: EPAC1 Rap1B-BODIPY-GDP exchange, fluorescence; activity, negative = inhibition: at 115 µM (top of the series)
Method in brief: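 Released BODIPY-GDP fluoresces less than Rap1-bound BODIPY-GDP; the signal is followed at 480/540 nm at 5-min intervals over 30 min, after 5 min at room temperature. Reactions contain 100 nM EPAC1, 250 nM RAP1B-BODIPY-GDP and 50 uM GDP; results are normalized to ATA and DMSO.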

[4] = biological target: Rap guanine nucleotide exchange factor 4 (Homo sapiens) (UniProt Q8WZA2); test: Confirmatory qHTS for antagonist of cAMP-regulated guanine nucleotide exchange factor 4 (EPAC2) (AID 1645885; active = well fitted curve in the direction sought with a large enough effect; inconclusive = small, poorly fitted or top-dose-only effect, or another doubt; inactive = no such curve, though single readings can be large; an effect the other way counts as inactive or inconclusive; note: % is set by controls: 0 for no effect and ±100 for the full control effect; nearly all actives have a fitted effect of over 25% in size); conditions: EPAC2 Rap1B-BODIPY-GDP exchange fluorescence, biochemical; activity change, negative = inhibition: at 12.7 µM (top of the series) unless noted; series mostly up to 114 µM
[5] = biological target: Rap guanine nucleotide exchange factor 3 (Homo sapiens) (UniProt O95398); test: Counterscreen qHTS for agonist of cAMP-regulated guanine nucleotide exchange factor 3 (EPAC1) (AID 1645889; active = well fitted curve in the direction sought with a large enough effect; inconclusive = small, poorly fitted or top-dose-only effect, or another doubt; inactive = no such curve, though single readings can be large; an effect the other way counts as inactive or inconclusive; note: nearly all actives have a fitted effect of over 40% in size; note: potency is the fitted concentration of half-maximal effect; for activation: % of control where 0% means no effect); conditions: EPAC1 Rap1B-BODIPY-GDP exchange, fluorescence; activation: at 154 µM (top of the series) unless noted
Method in brief: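 Rap1B–BODIPY-GDP (250 nM) with 50 uM GDP; compounds pin-transferred to 9.74 nM–152 uM final (activator) or from 7.32 nM upwards (inhibitor). Fluorescence Ex/Em 480/540 nm read at 5 and 30 min, then after adding cAMP or buffer, at room temperature.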

[6] = qHTS for Inhibitors of the vitamin D receptor (VDR): Hit Validation using a Texas Red Assay (AID 602201; active = well fitted curve in the direction sought with a large enough effect; inconclusive = small, poorly fitted or top-dose-only effect, or another doubt; inactive = no such curve, though single readings can be large; an effect the other way counts as inactive or inconclusive; note: potency is the fitted concentration of half-maximal effect); conditions: VDR coregulator binding, Texas Red fluorescence polarization, agonist-bound VDR ligand-binding domain; series mostly up to 57.1 µM
Method in brief: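 Fluorescence polarization with 1.5 uM VDR-LBD, LG19078 and 7 nM Texas Red (final). After 2 hours at ambient temperature, read at Ex 595 nm/Em 615 nm.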

[7] = biological target: Vitamin D3 receptor (Homo sapiens) (UniProt P11473); test: qHTS for Inhibitors of the vitamin D receptor (VDR): Hit Validation using a Beta-Lactamase Assay (AID 602202; active = well fitted curve in the direction sought with a large enough effect; inconclusive = small, poorly fitted or top-dose-only effect, or another doubt; inactive = no such curve, though single readings can be large; an effect the other way counts as inactive or inconclusive; note: potency is the fitted concentration of half-maximal effect); conditions: VDR beta-lactamase reporter cells, FRET ratio, cells co-treated with VDR agonist LG190178; series mostly up to 46.1 µM
Method in brief: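 Stably transfected HEK293 cells expressing VDR-GAL4 DNA-binding domain fusion with UAS-driven beta-lactamase reporter, activated by agonist LG190178; compounds incubated 18 h, then FRET beta-lactam substrate 2 h; cleaved substrate read at 447 nm emission.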

[8] = biological target: DNA polymerase eta (Homo sapiens) (UniProt Q9Y253); test: qHTS for Inhibitors of Polymerase Eta: Confirmatory Assay for Cherry-picked Compounds (AID 720502; active = well fitted curve in the direction sought with a large enough effect; inconclusive = small, poorly fitted or top-dose-only effect, or another doubt; inactive = no such curve, though single readings can be large; an effect the other way counts as inactive or inconclusive; note: potency is the fitted concentration of half-maximal effect); conditions: Pol eta primer extension, TAMRA/BHQ fluorescence, 10 min
Method in brief: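 Quenched-fluorescence replication assay: 10 nM Pol eta, 50 nM substrate final, 15 min compound preincubation at room temperature, 10 min kinetic reaction read at 525/598 nm.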

[9] = biological target: Rap guanine nucleotide exchange factor 4 (Homo sapiens) (UniProt Q8WZA2); test: Confirmatory qHTS for agonist of cAMP-regulated guanine nucleotide exchange factor 4 (EPAC2) (AID 1645884; active = well fitted curve in the direction sought with a large enough effect; inconclusive = small, poorly fitted or top-dose-only effect, or another doubt; inactive = no such curve, though single readings can be large; an effect the other way counts as inactive or inconclusive;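 note: nucleotide exchange releases bodipy-GDP from Rap1 and this lowers its fluorescence; potency is the fitted concentration of half-maximal effect; nearly all actives have a fitted effect of over 65% in size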); conditions: EPAC2 GEF activity, Rap1B-BODIPY-GDP fluorescence; activation: at 154 µM (top of the series), percent relative to cAMP agonist control
[10] = biological target: Cytochrome P450 2D6 (Homo sapiens) (UniProt P10635); test: Cytochrome P450 family 2 subfamily D member 6 (CYP2D6) small molecule antagonists: luciferase biochemical (cell-free) qHTS assay (AID 1645840; active = well fitted curve in the direction sought with a large enough effect in the repeat runs; inconclusive = weak or mixed curves; inactive = no such curve, though single readings can be large; an effect the other way counts as inactive or inconclusive; note: % is set by controls: 0 for no effect and ±100 for the full control effect; nearly all actives have a fitted effect of over 55% in size); conditions: P450-Glo CYP2D6 enzyme, luciferin luminescence, 1 h; series mostly up to 57.4 µM
Method in brief: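 P450-Glo CYP2D6 system: proluciferin substrate converted by enzyme to luciferin, read by luminescence proportional to activity. Enzyme-substrate mix with compound 10 min at room temperature, then NADPH regeneration 1 h before detection reagent.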

[11] = biological target: Cytochrome P450 2C9 (Homo sapiens) (UniProt P11712); test: Cytochrome P450 family 2 subfamily C member 9 (CYP2C9) small molecule antagonists: luciferase biochemical (cell-free) qHTS assay (AID 1645842; active = well fitted curve in the direction sought with a large enough effect in the repeat runs; inconclusive = weak or mixed curves; inactive = no such curve, though single readings can be large; an effect the other way counts as inactive or inconclusive; note: potency is the fitted concentration of half-maximal effect; nearly all actives have a fitted effect of over 55% in size); conditions: P450-Glo CYP2C9 enzyme assay, luciferin luminescence; series mostly up to 57.4 µM
Method in brief: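 P450-Glo CYP2C9 system: proluciferin substrate with enzyme in mix containing 0.4% BSA, 10 min at room temperature, then NADPH regeneration solution added and incubated 1 h at 37C. Detection reagent stopped reaction; luminescence read after 20 min as RLU.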

[12] = qHTS Assay for Lipid Storage Modulators (AID 1519); conditions: Drosophila S3 cells, BODIPY lipid droplet/cell ratio, laser cytometry, cells loaded with oleic acid; activity change, negative = inhibition: at 57.5 µM (top of the series) unless noted; note: potency is the fitted concentration of half-maximal effect; for activity change, negative = inhibition: % is set by controls: 0 for no effect and ±100 for the full control effect
Method in brief: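 Cells seeded at 5,000 per well were treated with compounds over a concentration series and loaded with oleic acid (400 uM, as added). Lipid droplet fluorescence (488 nm excitation, 500-530 nm channel) was read by laser-scanning cytometry and normalized to 20 uM Triacsin C.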

O=C(CCS(=O)(=O)c1nc(-c2cccs2)cc(C(F)(F)F)n1)Nc1ccc(Br)cc1
Potency [1]: active: 3.55 µM | Potency [2]: inconclusive: 8.44 µM [rising, partial curve, poor fit]

COc1ccc(-c2cc(C(F)(F)F)nc(S(C)(=O)=O)n2)cc1
Potency [2]: inconclusive: 18.9 µM [cytotoxic, single point]

Cc1ccc(O)c(-c2n[nH]c3c2C(c2ccc(F)cc2)N(Cc2ccco2)C3=O)c1 (configuration not stated)
Potency [3]: inconclusive: 84.9 µM [inhibitor, partial curve] | Potency [4]: inactive | Potency [5]: inconclusive: 11.2 µM [activator, single point]

O=C(CCS(=O)(=O)c1nc(-c2ccc3c(c2)OCO3)cc(C(F)(F)F)n1)Nc1ccc(F)c(Cl)c1
Potency [6]: inconclusive: 10 µM [inhibitor, partial curve] | Potency [7]: active: 23.1 µM | Potency [2]: inconclusive: 37.7 µM [cytotoxic, single point]

CCOc1ccc(NC(=O)c2c(NC(=O)Cc3ccccc3)sc3c2CCC(C)C3)cc1 (configuration not stated)
Potency [6]: active: 3.55 µM | Potency [2]: inconclusive: 37.7 µM [cytotoxic, single point]

CCOc1cc(CNc2ccc(O)cc2)ccc1OCc1ccc(Cl)cc1
Potency [8]: inconclusive: 23.9 µM [inhibitor, single point] | Potency [3]: active: 84.9 µM | Potency [9]: inconclusive: 11.2 µM [activator, partial curve, poor fit] | activation [5]: inconclusive: 79.2% [activator]

CCC1=Nc2cc(C(=O)NCCCOC)ccc2Sc2ccc(Br)cc21
activity, negative = inhibition [3]: inconclusive: -31.8% [inhibitor] | Potency [4]: inactive | activation [5]: inconclusive: 47.6% [activator]

O=C(CCS(=O)(=O)c1nc(-c2cccs2)cc(C(F)(F)F)n1)Nc1ccc(F)c(Cl)c1
Potency [6]: inconclusive: 39.8 µM [inhibitor, single point] | Potency [7]: inconclusive: 29.1 µM [inhibitor, single point] | Potency [2]: inconclusive: 33.6 µM [cytotoxic, single point]

CCc1ccc(C(=O)c2cn(CC(=O)Nc3ccc4c(c3)OCO4)c3ccc(CC)cc3c2=O)cc1
Potency [8]: inconclusive: 84.9 µM [inhibitor, single point]

COc1ccc(NC(=O)C2CCCN(c3nnc(C)c4c(C)n(-c5ccccc5)nc34)C2)cc1Cl (configuration not stated)
Potency [8]: inconclusive: 95.3 µM [inhibitor, single point]

CCOC(=O)c1ccc(NC(=O)CSc2nc3c([nH]c4ccccc43)c(=O)n2C)cc1
Potency [10]: inactive

COc1ccc(-n2nc3c(N4CCCC(C(=O)NCCc5ccccc5C)C4)nnc(C)c3c2C)cc1 (configuration not stated)
Potency [11]: active: 674 nM

COC(=O)N1CCC2(CC1)CN(C(=O)Nc1ccc(OC)cc1)C2
activity change, negative = inhibition [12]: inconclusive: 5.2%

C=C1C([C@@]2(C)C(OC(C)=O)CC(=O)O[C@@](C)(COC(C)=O)C2CC(=O)OC)C(OC=O)C(OC(=O)C(O)C(C)CC)[C@]2(C)C(c3ccoc3)CC(=O)C12O (some centres not stated)
activity change, negative = inhibition [12]: inconclusive: -4.33%

CC(C)NC(=O)N1CCCC2(CCN(C(=O)c3cccn3C)CC2)C1
activity change, negative = inhibition [12]: inconclusive: 6.52%

O=c1[nH]c(=O)c2nc(Br)n(C3OC(CO)C(O)C3O)c2[nH]1 (configuration not stated)
Potency [12]: inactive

COC1=CC(C)C2CC3OC(=O)CC4C(C)=C(OC)C(=O)C([C@]2(C)C1=O)[C@]34C (some centres not stated)
Potency [12]: inactive

COCCn1c(=O)c(-c2ccc(F)c(F)c2)nc2cncnc21
activity change, negative = inhibition [12]: inconclusive: 6.43%

CCOC(=O)CCCCCCCCCCCCC1C=CCC1 (configuration not stated)
Potency [12]: inactive

O=S(=O)(c1ccccc1)N1CCC2(CC1)CN(Cc1nccs1)C2
activity change, negative = inhibition [12]: inconclusive: 4.49%

CN(C)C(=O)c1ccc(-c2cncnc2NCCN2CCOCC2)cc1
activity change, negative = inhibition [12]: inconclusive: 7.27%

COC(=O)CC1[C@@]2(C)C[C@@]34OC5(C)OC6(CC[C@@]7(C)C(c8ccoc8)OC(=O)C(C(C)=O)C7[C@]6(O5)C(O)[C@@]3(O)C2O)[C@]14C (some centres not stated)
activity change, negative = inhibition [12]: inconclusive: 4.58%

CC(C)NC(=O)N1CC[C@@]2(CCCN(C(=O)c3csnn3)C2)C1
Potency [12]: inactive

O=c1c(O)c(-c2ccccc2)oc2cc(O)cc(O)c12
activity change, negative = inhibition [12]: inconclusive: 5.65%

COc1ccc(C(=O)N2CCC3(CCCN(c4ccccn4)C3)CC2)cc1
activity change, negative = inhibition [12]: inconclusive: 2.18%

COc1ccc(-n2c(=O)cnc3cnc(Oc4cccc(Cl)c4)nc32)cc1
activity change, negative = inhibition [12]: inconclusive: 6.33%

COC1OC2COC(c3ccccc3)OC2C(O)C1O (configuration not stated)
Potency [12]: inactive

O=C(O)C1(O)CC(O)C(O)C(O)C1 (configuration not stated)
Potency [12]: inactive

COC(=O)N1CCC[C@@]2(CCN(C(=O)Nc3ccccc3)C2)C1
Potency [12]: inactive

OCC(O)C(O)C(O)C(O)C(O)CO (configuration not stated)
activity change, negative = inhibition [12]: inconclusive: 7.77%

CC1(C)S[C@H]2[C@@H](NC(=O)C(N)c3ccccc3)C(=O)N2[C@H]1C(=O)O (some centres not stated)
activity change, negative = inhibition [12]: inconclusive: 2.19%

CC[C@@](N)(C(=O)O)c1ccc(C(=O)O)cc1
Potency [12]: inactive

COc1ccc2[nH]cc(CC(N)C(=O)O)c2c1 (configuration not stated)
Potency [12]: inconclusive: 14.1 µM [rising, partial curve]

CC(=O)N1CCC2(CC1)CCN(c1cccc(-c3ccccc3)c1)CC2
activity change, negative = inhibition [12]: inconclusive: 1.04%

CN(C)c1ncc2nc(-c3cc(F)cc(F)c3)c(=O)n(CCC#N)c2n1
Potency [12]: inactive

COCC(=O)N1CCC2(CC1)CCN(C(=O)Nc1ccc(OC)cc1)CC2
Potency [12]: inactive

CS(=O)(=O)N1CCC[C@@]2(CCN(c3ncccn3)C2)C1
activity change, negative = inhibition [12]: inconclusive: 8.11%

Cc1nc2cnc(N3CCOCC3)nc2n(C)c1=O
Potency [12]: inactive

COc1cc2ccc(=O)oc2c(OC)c1OC
activity change, negative = inhibition [12]: inconclusive: 14.7%
